# Experimental data from PubChem BioAssay AID1487 (National Center for Advancing Translational Sciences (NCATS), 2009).
# Several values for one entry are separate records, joined by “and”; a condition that tells them apart may be missing. Equal values may be shown once. This is one part of the list. The main result of the screen is listed elsewhere. These columns were measured beside it and carry no call. Compounds called inactive in the main read-out are mostly missing here. The note in brackets gives the kind of curve behind each potency; many fits are weak.
# Assay: qHTS Assay for Modulators of Lamin A Splicing
# Conditions: HeLa LMNA splicing GFP/RFP minigene ratio, 48 h
# Outline: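 S3 HeLa cells stably expressing lamin A-EGFP splicing minigene plus DsRed2, 600 cells/well, 48 h compound exposure at 37C. Laser-scanning cytometry; analysed as GFP (500-530 nm)/RFP (575-640 nm) total intensity ratio; 0.5% DMSO vehicle.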
# [1] = measured here: GFP splicing reporter channel
# [2] = measured here: RFP viability control channel
SMILES,AC50 [1],AC50 [2]
O=C(Nc1cccc(F)c1)c1cccnc1N1CCOCC1,"11.2 µM [rising, partial curve]",
CN(C)CCCN(C(=O)/C=C/c1cccs1)c1nc2c(F)cccc2s1,"2.24 µM [falling, partial curve]",
CC(C)C(OC(=O)c1cc2c(s1)CCCCC2)C(=O)NC(N)=O (stereo unspecified),,"35.5 µM [rising, single point]"
c1ccc(Cn2c(CNc3nc4ccccc4n3CCN3CCCCC3)nc3ccccc32)cc1,"12.6 µM [rising, partial curve]","14.1 µM [rising, partial curve]"
CCOC(=O)c1cnn(-c2ccccc2)c1-n1cccc1C(=O)C(=O)Nc1ccccc1C(F)(F)F,"35.5 µM [falling, single point]",
CS(=O)(=O)c1ccc(Cl)c(NC(=O)COC(=O)c2ccc(F)cc2Cl)c1,"0.0355 µM [falling, full curve, poor fit]",
CC(C)NCC(O)c1ccc(NS(C)(=O)=O)cc1 (stereo unspecified),"0.891 nM [falling, full curve, poor fit] and 6.31 µM [falling, partial curve, poor fit]","11.2 µM [rising, single point] and 3.55 nM [falling, full curve, poor fit] and 5.62 µM [falling, single point]"
Cc1ccc2[nH]cc(C(=O)NCc3cccs3)c(=O)c2c1,,"20 µM [rising, single point]"
c1ccc(-n2cnc3cc(NCc4ccco4)ccc32)cc1,"0.0355 µM [rising, full curve, poor fit]","0.0224 µM [rising, full curve, poor fit]"
CCn1c(SCc2ccc(C(=O)Nc3cc(C)cc(C)c3)cc2)nnc1-c1ccncc1,,"15.8 µM [rising, single point]"
O=C(Nc1nc2ccc(F)cc2s1)C1CCN(S(=O)(=O)c2cc([N+](=O)[O-])ccc2Cl)CC1,,"1.58 µM [rising, partial curve, poor fit]"
COc1cc(C(=O)NCC(c2cccnc2)N2CCN(c3ccc(F)cc3)CC2)cc(OC)c1OC (stereo unspecified),"35.5 µM [falling, single point] and 89.1 nM [rising, full curve, poor fit]","35.5 µM [falling, single point]"
Cc1ccccc1CNC(=O)c1ccc(-n2c(C)cc3c2CCCC3)cc1,"20 µM [falling, single point]","35.5 µM [falling, single point]"
C#C[C@]1(O)CC[C@H]2[C@@H]3CCc4cc(OC)ccc4[C@H]3CC[C@@]21C,"0.00355 µM [falling, full curve, poor fit]","12.6 µM [rising, single point] and 1.26 µM [falling, full curve, poor fit]"
COc1ccc(CNc2nc3c(c(=O)n(Cc4ccc(Cl)cc4)c(=O)n3C)n2C)cc1,,"6.31 µM [rising, partial curve]"
O=C(CC1S/C(=N/N=C/c2c[nH]c3ccc(OCc4ccccc4)cc23)NC1=O)Nc1ccccc1 (stereo unspecified),,"17.8 µM [falling, partial curve, poor fit]"
Nc1ccccc1Nc1cc(-c2cccc(Cl)c2)nn1-c1ccccc1,"12.6 µM [rising, single point]","28.2 µM [rising, partial curve]"
Cn1c(N)c(C(=O)COC(=O)c2ccc([N+](=O)[O-])o2)c(=O)n(C)c1=O,,"0.112 µM [falling, full curve]"
O=C(Nc1ccc(Cl)cc1Cl)c1cc(S(=O)(=O)N2CCN(c3ccccc3F)CC2)ccc1F,"0.501 µM [rising, full curve, poor fit]","6.31 µM [rising, partial curve, poor fit]"
Cc1ccc(O)c(-c2cc(C(=O)Nc3ccc(S(=O)(=O)Nc4nc(C)cc(C)n4)cc3)[nH]n2)c1,,"11.2 µM [rising, partial curve]"
Cc1ccc(NC(=O)Nc2cccnc2)cc1NC(=O)Nc1cccnc1,,"2.82 µM [falling, partial curve]"
CC(C)c1ccc(NC(=O)N2CCCC2C(=O)Nc2ccc(-n3cnnn3)cc2)cc1 (stereo unspecified),"0.562 µM [falling, full curve, poor fit]","0.0631 µM [falling, full curve, poor fit]"
COc1cccc(N2CCN(C(=O)c3ccc(CSc4nc5ccncc5[nH]4)cc3)CC2)c1,,"12.6 µM [rising, partial curve]"
CCC(C(=O)Nc1cccc(-c2cn3cccnc3n2)c1)c1ccccc1 (stereo unspecified),"5.01 µM [rising, single point]",
CC1=C(C)C(=O)C(CCCCC#CCCCC#CCO)=C(C)C1=O,"3.98 µM [falling, full curve, poor fit] and 15.8 µM [rising, single point]","6.31 µM [falling, single point] and 25.1 µM [rising, single point]"

SMILES,AC50 [1],AC50 [2]
COc1ccc(Br)cc1CNC(=O)CCCn1c(=O)c2cccn2c2ccccc21,"25.1 µM [falling, partial curve]","12.6 µM [falling, partial curve, poor fit]"
Cc1cc(C)c(/C=C(\C#N)C(N)=S)c(C)c1,"0.316 µM [falling, full curve, poor fit]",
O=C(Nc1ccc(Cl)cc1)C1CCN(c2nc3ccccc3n3cccc23)CC1,"35.5 µM [falling, single point]","35.5 µM [falling, single point]"
N=c1n(Cc2ccccc2Cl)c2ccccc2n1CC(O)c1ccco1 (stereo unspecified),"31.6 µM [falling, partial curve, poor fit]",
NC(=S)n1[nH]c(-c2ccc([N+](=O)[O-])cc2)c(N=Nc2cccc(Cl)c2)c1=O,,"35.5 µM [rising, single point]"
CCCc1cc(=O)[nH]c(NCc2ccc(Cl)cc2)n1,"10 µM [rising, single point]","25.1 µM [rising, single point]"
COC(=O)c1cc(C)sc1NC(=O)c1cccnc1,"14.1 µM [rising, single point]","0.0178 µM [rising, full curve, poor fit]"
CCOc1ccc(NC(=O)N2CCOc3ccccc32)cc1,"7.94 µM [falling, partial curve, poor fit]","2.51 µM [falling, full curve]"
CSc1ccc(S(=O)(=O)NC2CCCCCC2)cc1,"4.47 µM [rising, single point]","7.08 µM [rising, single point]"
Cc1ccc(Cl)cc1Nc1nc2ccccc2n2c(C)nnc12,"0.158 µM [rising, full curve, poor fit]",
CN(CCOc1ccc(NS(C)(=O)=O)cc1)CCc1ccc(NS(C)(=O)=O)cc1,"1.26 µM [falling, single point]",
CCOC(=O)c1ccc(NC(=O)CN2C(=O)c3cccnc3Oc3ccc(Cl)cc32)cc1,"35.5 µM [falling, partial curve, poor fit]",
COc1ccc(C(C[N+](=O)[O-])n2nc(C)cc2C)cc1 (stereo unspecified),"35.5 µM [falling, single point]","5.01 µM [rising, partial curve, poor fit]"
Cc1ccc(N2CCn3c2nc2c3c(=O)n(CCc3ccccc3)c(=O)n2C)cc1C,"0.0224 µM [rising, full curve, poor fit]",
CCOc1ccc(NC(=O)Nc2cc(OCC(F)(F)F)cc(OCC(F)(F)F)c2)cc1,,"35.5 µM [rising, single point]"
Cc1cc(C(=O)CSc2nncs2)c(C)n1-c1ccc2c(c1)OCO2,"11.2 µM [rising, single point]","12.6 µM [rising, partial curve]"
Cc1n[nH]c(C)c1CCc1nc2c3ccccc3nc(SCC(=O)Nc3ccccc3F)n2n1,"0.316 µM [rising, partial curve, poor fit]",
Cn1c(NCC2CCCO2)nc2c1c(=O)n(Cc1ccccc1)c(=O)n2C (stereo unspecified),"3.16 µM [rising, full curve, poor fit]","4.47 µM [rising, full curve]"
Cc1ccc(-c2cc(C(=O)N/N=C/c3c[nH]c4ccccc34)n[nH]2)o1,,"0.708 µM [rising, partial curve, poor fit]"
COc1cc(/C=N/NC(=O)CCC(=O)NCc2ccccc2)cc(OC)c1OC,,"35.5 µM [rising, single point]"
Cc1cc(N2CCC(C)CC2)nc(NCc2ccccc2)n1,"11.2 µM [rising, partial curve]","14.1 µM [rising, partial curve]"
COCCNC(=O)C1=C(N)C(C(=O)Nc2ccc(C)c(S(=O)(=O)N3CCCCC3)c2)SC1=Nc1ccc(C)cc1C (stereo unspecified),,"15.8 µM [rising, single point]"
CCc1ccc2c(c1)C(O)(CC(=O)c1cccs1)C(=O)N2 (stereo unspecified),"0.0794 µM [rising, full curve, poor fit]","5.62 µM [rising, partial curve, poor fit]"
CSc1nsc(SCC(=O)Nc2ccc(Br)cn2)n1,"11.2 µM [rising, single point]","17.8 µM [rising, single point]"

# 3 entries from above, sorted by length of the SMILES, ascending:
SMILES,AC50 [1],AC50 [2]
COc1ccc(C(C[N+](=O)[O-])n2nc(C)cc2C)cc1 (stereo unspecified),"35.5 µM [falling, single point]","5.01 µM [rising, partial curve, poor fit]"
Cc1cc(C(=O)CSc2nncs2)c(C)n1-c1ccc2c(c1)OCO2,"11.2 µM [rising, single point]","12.6 µM [rising, partial curve]"
COc1cc(/C=N/NC(=O)CCC(=O)NCc2ccccc2)cc(OC)c1OC,,"35.5 µM [rising, single point]"
